Laboratory results reported in patent US9977024B2, “Targeted covalent probes and inhibitors of proteins containing redox-sensitive cysteines” (THE SCRIPPS RESEARCH INSTITUTE, priority 2012, dated 2018).
A number of entries come with more than one value. This list holds those alone. The source may hold further records. The values listed for one entry do not match, cause unknown; dose, time, organism, isomer or construct need not be as stated for each record.

Test: Microsome stability, human liver microsomes

Compound: O=C1CC(=O)C(CC(=O)Nc2ccc3ncnc(Nc4cccc(Br)c4)c3c2)C1 (stereo not shown)
- Microsome Stability Human t1/2: > 100 min and 111 min
